# Source: PubChem BioAssay (EPA / NIEHS)
# By UniProt entry, the sequences of proteins in these tests, tags left out.
# UniProt P33261, whole entry, looked up: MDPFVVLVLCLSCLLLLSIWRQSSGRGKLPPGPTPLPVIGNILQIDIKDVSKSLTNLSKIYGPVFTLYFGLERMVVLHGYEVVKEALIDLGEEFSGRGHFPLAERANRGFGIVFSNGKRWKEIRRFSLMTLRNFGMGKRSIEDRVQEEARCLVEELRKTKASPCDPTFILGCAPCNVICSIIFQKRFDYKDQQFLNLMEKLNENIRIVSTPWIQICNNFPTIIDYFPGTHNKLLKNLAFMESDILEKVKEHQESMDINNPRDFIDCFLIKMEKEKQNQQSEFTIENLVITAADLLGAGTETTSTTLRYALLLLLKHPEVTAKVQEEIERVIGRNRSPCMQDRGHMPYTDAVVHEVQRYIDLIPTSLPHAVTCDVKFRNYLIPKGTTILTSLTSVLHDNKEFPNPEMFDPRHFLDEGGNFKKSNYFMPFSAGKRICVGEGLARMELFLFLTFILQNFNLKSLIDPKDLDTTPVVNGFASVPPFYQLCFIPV
# Inconclusive means that the source gave no clear call. Such entries were picked first, then a sample of the others. A potency beside an inconclusive call is a rough fit, not a confirmed value. The source made the active and inactive calls. How the source made its calls: active means hit-call score of the fitted dose curve at least 0.9, where 1 is the maximum; inconclusive means response in the unintended direction; inactive means score below 0.9.
# Read-out: Cytochrome P450 2C19 (Homo sapiens) (UniProt P33261)
# Assay: CLD_CYP2C19_48hr: CellzDirect (CLD) Gene Expression Assay for xenobiotic metabolism (CYP2C19) at 48 hours (AID 2283700);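 on outcome: fitted upward so actives raise CYP2C19 mRNA above the 0.2% DMSO vehicle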
# Protocol: CLD_48hr is a cell-based, multiplexed-readout assay that uses hepatocyte, a human liver primary cell, with measurements taken at 48 hours after chemical dosing in a 96-well plate.CLD_CYP2C19_48hr is one of 16 assay component(s) measured or calculated from the CLD_48hr assay. It is designed to make measurements of mRNA induction, a form of inducible reporter, as detected with chemiluminescence signals by Quantitative Nuclease Protection Assay (qNPA) technology.Data from the assay component CLD_CYP2C19_48hr was analyzed at the endpoint, CLD_CYP2C19_48hr, in the positive analysis fitting direction relative to DMSO as the negative control and baseline of activity. Using a type of inducible reporter, gain-of-signal activity can be used to understand changes in the reporter gene as they relate to the gene CYP2C19. Furthermore, this assay endpoint can be referred to as a primary readout. To generalize the intended target to other relatable targets, this assay endpoint is annotated to the cyp intended target family, where subfamily is xenobiotic metabolism.
# Human hepatocyte cultures were treated daily for two consecutive days with fresh dosing solutions containing appropriate concentrations of the 320 ToxCast chemicals (chemical identities were blinded to CellzDirect and other ToxCast collaborators), vehicle control (0.2% DMSO), and positive control inducers as summarized in Table 1. Due to the large number of treatment groups and chemicals examined, the ToxCast chemicals were divided into two groups (spanning two independent cultures of hepatocytes from separate donor preparations (Hu778: ToxCast plates 1 and 2; Hu776: ToxCast plates 3 and 4). Each preparation of human hepatocyte cultures was treated with respective vehicle control, medium only control, set of six positive controls/reference chemicals for the five hepatic receptor pathways, and a subset of eight of the ToxCast chemicals (indoxacarb, pyrithiobac-sodium, norflurazon, cyhalofop-butyl, methomyl, thiram, acetochlor, and propiconazole). These replicate data, coupled with internal replicates designed within the blinded ToxCast chemical library, provided additional data to evaluate interindividual differences between hepatocyte preparations and their potential impact on chemical profiles.Cell morphology and integrity were evaluated using phase-contrast microscopy as an indicator of hepatocyte cell health (Tyson & Green, 1987). Cultures for each treatment group (i.e., media, vehicle [0.2% DMSO], positive control inducers [multiple concentrations], and the ToxCast chemicals [multiple concentrations]) were observed and cell morphology was assessed relative to vehicle control cultures at each harvest time point (0, 6, 24, or 48 h). […] Images were evaluated at the conclusion of the study to assess changes in cell integrity and account for the effects of chemical exposure on uncharacteristic changes in concentration-dependent gene expression profiles. The results from these determinations of apparent cytotoxicity were annotated (yes/no) alongside the corresponding qNPA data for reference.At the conclusion of each treatment period, hepatocyte cultures (96-well) were washed with 1 volume of HBSS, lysed by addition of 25 ul ArrayPlate lysis buffer (HTG, Tucson, AZ), and 70 ul/well of Denaturation Oil, denatured by incubation at 95C for 10 min, and frozen at approximately -70C until analysis by nuclease protection assay (qNPA) (Roberts et al., 2007). For qNPA analysis, cell lysates were thawed at 50C for approximately 30 min, qNPA probes were added, and samples were incubated at 95C for 10 min to begin the detection process by denaturing the target RNA, dissociating the duplexes and secondary structure hybridization. At the conclusion of the hybridization period, S1 nuclease reagent was added to each sample to digest all nonprotected nucleotides at 50C for 60-90 min. […]
Compound,AC50,outcome
CCN(Cc1c(F)cccc1Cl)c1c([N+](=O)[O-])cc(C(F)(F)F)cc1[N+](=O)[O-],inconclusive: 3.78 µM,
CCNc1nc(N)nc(Cl)n1,inconclusive: 20 µM,
O=C(Nc1ccc([N+](=O)[O-])cc1Cl)c1cc(Cl)ccc1O,inconclusive: 4.24 µM,
COC(=O)c1c(Cl)nn(C)c1S(=O)(=O)NC(=O)Nc1nc(OC)cc(OC)n1,inconclusive: 20 µM,
CCSC(=O)N(CC(C)C)CC(C)C,,inactive
C#CCOC(=O)[C@@H](C)Oc1ccc(Oc2ncc(Cl)cc2F)cc1,,inactive
COC(=O)c1ccccc1S(=O)(=O)NC(=O)Nc1nc(OC(F)F)cc(OC(F)F)n1,,inactive
CCCCC(CC)CN1C(=O)C2C3C=CC(C3)C2C1=O (configuration not stated),inconclusive: 20 µM,
CCC(C)OC(=O)N1CCCCC1CCO (configuration not stated),,inactive
OB(O)O,,inactive
CCN(CC)C(=O)c1cccc(C)c1,,inactive
C=CCOC(Cn1ccnc1)c1ccc(Cl)cc1Cl (configuration not stated),inconclusive: 20 µM,

# Quoted at random: 2 entries already listed.
Compound,AC50,outcome
COC(=O)c1c(Cl)nn(C)c1S(=O)(=O)NC(=O)Nc1nc(OC)cc(OC)n1,inconclusive: 20 µM,
COC(=O)c1ccccc1S(=O)(=O)NC(=O)Nc1nc(OC(F)F)cc(OC(F)F)n1,,inactive
